doi:10.1101/388868
Numbering of substitutions follows the chain as printed. No constants are given. Whether binding was seen depends on the method and setting. Binding seen in cells or lysates may run through a third protein. For some assays here: Binding calls can cover weak binding; strength is not graded here. For some assays here: Where a sequence is shown, tags or fusion partners need not be part of it.

Experiments:
[1] = biological target: T1, FLAG-UNC-10 (aa 1-601), wild type (C. elegans) (UniProt Q22366); experiment: co-IP
T1 sequence: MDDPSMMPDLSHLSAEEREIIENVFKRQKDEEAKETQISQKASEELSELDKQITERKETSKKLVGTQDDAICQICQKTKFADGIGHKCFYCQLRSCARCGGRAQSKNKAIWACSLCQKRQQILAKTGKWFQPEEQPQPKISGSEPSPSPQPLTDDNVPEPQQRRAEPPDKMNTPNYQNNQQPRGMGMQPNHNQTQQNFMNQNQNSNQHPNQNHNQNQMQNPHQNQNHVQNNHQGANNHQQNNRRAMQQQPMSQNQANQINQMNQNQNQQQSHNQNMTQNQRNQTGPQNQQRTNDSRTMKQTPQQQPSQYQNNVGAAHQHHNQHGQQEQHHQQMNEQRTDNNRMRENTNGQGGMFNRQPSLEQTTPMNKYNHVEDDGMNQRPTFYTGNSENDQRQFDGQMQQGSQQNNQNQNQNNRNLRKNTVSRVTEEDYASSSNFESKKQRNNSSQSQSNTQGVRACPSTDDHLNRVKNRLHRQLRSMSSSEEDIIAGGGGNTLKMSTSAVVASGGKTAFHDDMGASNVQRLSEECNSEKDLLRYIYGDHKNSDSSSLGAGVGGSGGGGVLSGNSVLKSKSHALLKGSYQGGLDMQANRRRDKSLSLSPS

[2] = biological target: T2, UNC-10(K77/79E) (aa 1-601) used in the co-immunoprecipitation (C. elegans) (UniProt Q22366); experiment: co-IP
T2 sequence: T1 sequence with K77E, K79E

binding [1]: binds
binding [2]: no binding
Substance: HA-LNTD (aa 1-605) of UNC-13L (C. elegans) (domain or fragment)
